One molecule from patent US20090137577A1, “HETEROCYCLIC COMPOUNDS” (Pfizer Inc., priority 2007, published 2009) can be followed below.

By UniProt entry, the sequences of proteins in these tests, tags left out. Residues count along the entry.
UniProt Q14416, 19-872 limits assumed: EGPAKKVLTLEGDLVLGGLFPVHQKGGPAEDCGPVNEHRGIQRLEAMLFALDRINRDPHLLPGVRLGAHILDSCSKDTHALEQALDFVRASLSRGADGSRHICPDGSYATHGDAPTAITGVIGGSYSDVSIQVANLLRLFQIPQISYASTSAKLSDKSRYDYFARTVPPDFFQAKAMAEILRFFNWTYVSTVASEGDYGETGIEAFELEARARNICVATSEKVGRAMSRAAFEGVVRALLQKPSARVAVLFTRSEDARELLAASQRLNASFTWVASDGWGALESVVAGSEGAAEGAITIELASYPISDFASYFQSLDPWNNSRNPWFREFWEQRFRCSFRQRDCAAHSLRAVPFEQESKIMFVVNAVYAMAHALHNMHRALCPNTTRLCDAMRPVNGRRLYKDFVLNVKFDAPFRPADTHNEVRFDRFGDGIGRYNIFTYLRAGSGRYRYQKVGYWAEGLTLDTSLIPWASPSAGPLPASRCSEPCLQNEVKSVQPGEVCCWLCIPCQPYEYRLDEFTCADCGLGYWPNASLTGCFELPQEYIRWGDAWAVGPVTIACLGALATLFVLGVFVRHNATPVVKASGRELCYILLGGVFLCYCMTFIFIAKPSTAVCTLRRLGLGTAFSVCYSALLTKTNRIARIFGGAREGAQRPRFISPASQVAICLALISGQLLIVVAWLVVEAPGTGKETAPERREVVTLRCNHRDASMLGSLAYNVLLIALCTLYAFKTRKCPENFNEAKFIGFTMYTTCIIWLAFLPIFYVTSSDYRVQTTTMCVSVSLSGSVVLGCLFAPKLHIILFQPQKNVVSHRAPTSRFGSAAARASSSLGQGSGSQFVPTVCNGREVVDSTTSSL

Where “and” joins values, the source holds several entries; their conditions need not be identical. Equal entries are not always repeated. The match of structure and compound is tentative.

By EC50 is commonly meant the concentration giving half of the maximal effect.

The assay addresses mGluR2 receptor (metabotropic glutamate receptor 2) (Homo sapiens, UniProt Q14416). Briefly: mGluR2 potentiator screen (FLIPR, EC10-EC20 glutamate challenge).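 Further: HEK cells stably expressing human mGluR2 with GL15 G protein, Fluo-4 calcium fluorescence read on FLIPR, compounds added before an EC10-EC20 glutamate challenge to detect potentiation.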 Type of assay: cell-based. To be noted: read-out: mGluR 2 EC50 (geometric mean).

On to `C[C@@H]1CN(Cc2ccc(-c3ccc4c(c3)CCO4)cc2)C(=O)O1`, for which the EC50 was 28.6 nM and 35.3 nM.
